Values of other authors, collected in patent publication US20060235005A1, “Use of phosphodiesterase 5 (PDE5) inhibitors in the treatment of schizophrenia” (Oak Labs, Corp., priority 2005, published 2006).
For at least one compound, name, drawing or mass did not settle the structure.

Tested on: patients with schizophrenia
Settings: compared with haloperidol

Cc1cc2c(s1)Nc1ccccc1N=C2N1CCN(C)CC1 [olanzapine]
reduction in relapse rate: 30%
